Experimental findings from article PMC6588571 are described below.

Positions count from the first letter of the chain named. No constants are given. Whether binding was seen depends on the method and setting. For part of these data: Binding seen in cells or lysates may run through a third protein. Some binding calls cover weakened binding; strength is not graded here. Tags and fused reporters may be left off the sequences shown.

T1: C-terminally TAP-tagged Tsr1 (S. cerevisiae) (UniProt Q07381)
T1 sequence: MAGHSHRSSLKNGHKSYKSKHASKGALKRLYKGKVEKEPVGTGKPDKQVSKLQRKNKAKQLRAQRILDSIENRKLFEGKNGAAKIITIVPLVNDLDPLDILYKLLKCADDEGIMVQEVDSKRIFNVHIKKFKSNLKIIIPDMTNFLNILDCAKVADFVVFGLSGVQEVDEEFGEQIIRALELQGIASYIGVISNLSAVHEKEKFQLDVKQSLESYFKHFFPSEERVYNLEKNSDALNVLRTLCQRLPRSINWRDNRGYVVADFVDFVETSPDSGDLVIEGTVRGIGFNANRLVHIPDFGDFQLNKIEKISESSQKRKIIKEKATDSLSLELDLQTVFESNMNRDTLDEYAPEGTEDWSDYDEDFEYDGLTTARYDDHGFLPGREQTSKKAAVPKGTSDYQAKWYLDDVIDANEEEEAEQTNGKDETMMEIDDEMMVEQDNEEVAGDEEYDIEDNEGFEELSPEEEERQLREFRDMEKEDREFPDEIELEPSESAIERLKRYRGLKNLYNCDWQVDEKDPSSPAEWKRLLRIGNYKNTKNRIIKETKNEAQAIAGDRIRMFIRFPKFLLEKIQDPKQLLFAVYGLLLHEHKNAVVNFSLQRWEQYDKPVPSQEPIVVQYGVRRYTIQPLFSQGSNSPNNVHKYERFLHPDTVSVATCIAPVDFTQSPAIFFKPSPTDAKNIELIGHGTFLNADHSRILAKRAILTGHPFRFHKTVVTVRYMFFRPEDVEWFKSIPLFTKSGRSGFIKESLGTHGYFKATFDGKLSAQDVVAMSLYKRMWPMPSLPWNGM

T2: Hrr25(1–394) fused to the Gal4 DNA-binding domain (S. cerevisiae) (UniProt P29295)
T2 sequence: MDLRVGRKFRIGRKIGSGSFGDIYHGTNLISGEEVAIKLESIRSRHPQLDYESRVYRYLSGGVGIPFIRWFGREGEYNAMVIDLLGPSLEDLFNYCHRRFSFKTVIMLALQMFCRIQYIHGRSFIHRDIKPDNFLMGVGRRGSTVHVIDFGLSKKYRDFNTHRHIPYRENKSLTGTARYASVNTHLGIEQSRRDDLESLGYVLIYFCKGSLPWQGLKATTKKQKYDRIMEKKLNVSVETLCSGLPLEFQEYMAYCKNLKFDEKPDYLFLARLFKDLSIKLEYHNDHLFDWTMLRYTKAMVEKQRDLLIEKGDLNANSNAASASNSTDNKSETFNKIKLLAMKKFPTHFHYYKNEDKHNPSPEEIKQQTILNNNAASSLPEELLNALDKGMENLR

T3: Hrr25(1–394).K38R fused to the Gal4 DNA-binding domain (S. cerevisiae) (UniProt P29295)
T3 sequence: T2 sequence with K38R

T4: full-length Hrr25 (494 aa) fused to the Gal4 DNA-binding domain (S. cerevisiae) (UniProt P29295)
T4 sequence: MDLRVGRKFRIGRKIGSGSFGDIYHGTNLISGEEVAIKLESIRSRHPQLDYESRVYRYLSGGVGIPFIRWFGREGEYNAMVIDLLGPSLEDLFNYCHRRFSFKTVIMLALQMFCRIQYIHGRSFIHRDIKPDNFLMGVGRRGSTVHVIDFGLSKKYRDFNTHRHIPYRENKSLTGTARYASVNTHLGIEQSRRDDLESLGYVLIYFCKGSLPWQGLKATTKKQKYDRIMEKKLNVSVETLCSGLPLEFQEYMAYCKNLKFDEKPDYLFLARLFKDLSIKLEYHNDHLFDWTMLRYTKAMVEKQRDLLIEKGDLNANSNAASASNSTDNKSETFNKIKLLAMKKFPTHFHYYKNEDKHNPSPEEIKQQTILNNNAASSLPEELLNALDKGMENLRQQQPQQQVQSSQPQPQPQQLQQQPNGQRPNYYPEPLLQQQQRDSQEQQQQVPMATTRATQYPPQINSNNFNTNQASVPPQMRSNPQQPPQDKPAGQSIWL

B1: Enp1 (endogenous) (protein, UniProt P38333 1-483)
chain: MARASSTKARKQRHDPLLKDLDAAQGTLKKINKKKLAQNDAANHDAANEEDGYIDSKASRKILQLAKEQQDEIEGEELAESERNKQFEARFTTMSYDDEDEDEDEDEEAFGEDISDFEPEGDYKEEEEIVEIDEEDAAMFEQYFKKSDDFNSLSGSYNLADKIMASIREKESQVEDMQDDEPLANEQNTSRGNISSGLKSGEGVALPEKVIKAYTTVGSILKTWTHGKLPKLFKVIPSLRNWQDVIYVTNPEEWSPHVVYEATKLFVSNLTAKESQKFINLILLERFRDNIETSEDHSLNYHIYRAVKKSLYKPSAFFKGFLFPLVETGCNVREATIAGSVLAKVSVPALHSSAALSYLLRLPFSPPTTVFIKILLDKKYALPYQTVDDCVYYFMRFRILDDGSNGEDATRVLPVIWHKAFLTFAQRYKNDITQDQRDFLLETVRQRGHKDIGPEIRRELLAGASREFVDPQEANDDLMIDVN
B2: Asc1 (endogenous) (protein, UniProt P38011 1-319)
chain: MASNEVLVLRGTLEGHNGWVTSLATSAGQPNLLLSASRDKTLISWKLTGDDQKFGVPVRSFKGHSHIVQDCTLTADGAYALSASWDKTLRLWDVATGETYQRFVGHKSDVMSVDIDKKASMIISGSRDKTIKVWTIKGQCLATLLGHNDWVSQVRVVPNEKADDDSVTIISAGNDKMVKAWNLNQFQIEADFIGHNSNINTLTASPDGTLIASAGKDGEIMLWNLAAKKAMYTLSAQDEVFSLAFSPNRYWLAAATATGIKVFSLDPQYLVDDLRPEFAGYSKAAEPHAVSLAWSADGQTLFAGYTDNVIRVWQVMTAN
B3: Rps20Δloop (in the pre-40S particles used for cryo-EM) (protein, UniProt P38701)
chain: MSDFQKEKVEEQEQQQQQIIKIRITLTSTKVKQLENVSSNIVKNAEQHNLVKKGPVRLPTKVLKISTWETYEMRIHKRYIDLEAPVQIVKRITQITIEPGVDVEVVVASN
B4: Ltv1.S6>A fused to the Gal4 activation domain (protein, UniProt P34078 1-463)
chain: MSKKFSSKNSQRYVVVHRPHDDPSFYDTDASAHVLVPVSNPNKTSPEADLRKKDVSSTKPKGRRAHVGEAALYGINFDDSEYDYTQHLKPIGLDPENSIFIASKGNEQKVEKKNIEDLFIEPKYRRDEIEKDDALPVFQRGMAKPEYLLHQQDTTDEIRGFKPDMNPALREVLEALEDEAYVVNDDVVVEDISKKTQLQGDNYGEEEKEDDIFAQLLGSGEAKDEDEFEDEFDEWDIDNVENFEDENYVKEMAQFDNIENLEDLENIDYQADVRRFQKDNSILEKHNSDDEFSNAGLDSVNPSEEEDVLGELPSIQDKSKTGKKKRKSRQKKGAMADVAGFAMAAAAIARTETMTVLDDQYDQIINGYENYEEELEEDEEQNYQPFDMSAERSDFESMLDDFLDNYELESGGRKLAKKDKEIERLKEAADEVSKGKLSQRRNRERQEKKKLEKVTNTLSSLKF
B5: Ltv1.S6>E fused to the Gal4 activation domain (protein, UniProt P34078 1-463)
chain: B4 chain with A336E, A339E, A342E, A344E, A345E, A346E
B6: Ltv1 fragment aa 333–412 fused to the Gal4 activation domain (domain or fragment, UniProt P34078 333-412)
chain: GAMSDVSGFSMSSSAIARTETMTVLDDQYDQIINGYENYEEELEEDEEQNYQPFDMSAERSDFESMLDDFLDNYELESGG
B7: Ltv1 fragment aa 160–296 fused to the Gal4 activation domain (domain or fragment, UniProt P34078 160-296)
chain: GFKPDMNPALREVLEALEDEAYVVNDDVVVEDISKKTQLQGDNYGEEEKEDDIFAQLLGSGEAKDEDEFEDEFDEWDIDNVENFEDENYVKEMAQFDNIENLEDLENIDYQADVRRFQKDNSILEKHNSDDEFSNAG
B8: r-protein Rps15 (protein, UniProt Q01855 1-142)
chain: MSQAVNAKKRVFKTHSYRGVDLEKLLEMSTEDFVKLAPARVRRRFARGMTSKPAGFMKKLRAAKLAAPENEKPAPVRTHMRNMIIVPEMIGSVVGIYNGKAFNQVEIRPEMLGHYLGEFSITYTPVRHGRAGATTSRFIPLK
B9: Ltv1 (wild type, in yeast cells) (protein, UniProt P34078 1-463)
chain: B4 chain with A336S, A339S, A342S, A344S, A345S, A346S
B10: Ltv1(S336/S339/S342>A) phosphomutant (protein, UniProt P34078 1-463)
chain: B4 chain with A344S, A345S, A346S
B11: N-terminally HA-tagged Rps20Δloop (protein, UniProt P38701)
chain: B3 chain
B12: N-terminally HA-tagged Rps20.R68/K69>E (protein, UniProt P38701 1-121)
chain: MSDFQKEKVEEQEQQQQQIIKIRITLTSTKVKQLENVSSNIVKNAEQHNLVKKGPVRLPTKVLKISTEETPNGEGSKTWETYEMRIHKRYIDLEAPVQIVKRITQITIEPGVDVEVVVASN
B13: N-terminally HA-tagged Rps20.D113/E115>K (protein, UniProt P38701 1-121)
chain: B12 chain with E68R, E69K, D113K, E115K

The target of one assay is T1, C-terminally TAP-tagged Tsr1 (S. cerevisiae). The assay can be described thus: cryo-EM structure; pre-40S particles from rps20Δloop cells purified via Tsr1-TAP (lysis buffer with 5 mM MgCl2) and a 10–30% sucrose gradient; single particle analysis, classes C1-S20Δloop (3.47 Å) and C2-S20Δloop (3.79 Å); the partners stand in one ribonucleoprotein particle.
With B1, the binding entry is recorded as “binds”.
As for B2, the binding entry is reported as “binds”.
On the same count and under the same terms, the value for B3 was “binds”.

The next assay concerns the target T2, Hrr25(1–394) fused to the Gal4 DNA-binding domain (S. cerevisiae). The assay can be described thus: two-hybrid; baits fused to the GAL4 DNA-binding domain, preys fused to the GAL4 activation domain, co-transformed into reporter strain PJ69-4A; ten-fold serial dilutions spotted on SDC-Trp-Leu, SDC-Trp-Leu-His (growth: weak interaction) and SDC-Trp-Leu-Ade (growth: strong interaction).
Take B4: the binding result was “binds”.
With B5, the binding result is “binds”.

In a further assay the target is T3, Hrr25(1–394).K38R fused to the Gal4 DNA-binding domain (S. cerevisiae). The assay is described as above.
For B6, the binding result was “binds”.
With B4, the binding result is given as “binds”.
For the molecule B5, the binding result is “binds”.
In the case of B7, the binding entry is reported as “binds”.

For a further assay, the target named is T4, full-length Hrr25 (494 aa) fused to the Gal4 DNA-binding domain (S. cerevisiae). Described as above.
B8: the binding entry was “binds weakly”.

For a further assay, the target named is T1, C-terminally TAP-tagged Tsr1 (S. cerevisiae). The experiment in a line: co-IP; Tsr1-TAP pre-40S particles from yeast lysate bound to IgG beads, eluted with TEV protease, western blotting; wild-type, rps20Δloop, rio2.D253A and ltv1 phosphomutant strains; in the ATP assays the bound particles were incubated with or without 1 mM ATP for 30 min at 4 °C (50 mM TRIS pH 7.5, 100 mM NaCl, 5 mM MgCl2, 0.075% NP-40, 1 mM DTT) and washed before elution.
Turning to B9, the binding entry is on record as “binds”.
Turning to B10, the binding entry was “binds”.
The same measure, in the same setting: the value for B11 was “binds”.
Same read-out and setting: the value for B12 was “binds”.
For B13, the binding result is “binds”.
